The test addresses T1, Tho2 (residues 1-1207), subunit of THO* (S. cerevisiae) (UniProt P53552).
T1 sequence: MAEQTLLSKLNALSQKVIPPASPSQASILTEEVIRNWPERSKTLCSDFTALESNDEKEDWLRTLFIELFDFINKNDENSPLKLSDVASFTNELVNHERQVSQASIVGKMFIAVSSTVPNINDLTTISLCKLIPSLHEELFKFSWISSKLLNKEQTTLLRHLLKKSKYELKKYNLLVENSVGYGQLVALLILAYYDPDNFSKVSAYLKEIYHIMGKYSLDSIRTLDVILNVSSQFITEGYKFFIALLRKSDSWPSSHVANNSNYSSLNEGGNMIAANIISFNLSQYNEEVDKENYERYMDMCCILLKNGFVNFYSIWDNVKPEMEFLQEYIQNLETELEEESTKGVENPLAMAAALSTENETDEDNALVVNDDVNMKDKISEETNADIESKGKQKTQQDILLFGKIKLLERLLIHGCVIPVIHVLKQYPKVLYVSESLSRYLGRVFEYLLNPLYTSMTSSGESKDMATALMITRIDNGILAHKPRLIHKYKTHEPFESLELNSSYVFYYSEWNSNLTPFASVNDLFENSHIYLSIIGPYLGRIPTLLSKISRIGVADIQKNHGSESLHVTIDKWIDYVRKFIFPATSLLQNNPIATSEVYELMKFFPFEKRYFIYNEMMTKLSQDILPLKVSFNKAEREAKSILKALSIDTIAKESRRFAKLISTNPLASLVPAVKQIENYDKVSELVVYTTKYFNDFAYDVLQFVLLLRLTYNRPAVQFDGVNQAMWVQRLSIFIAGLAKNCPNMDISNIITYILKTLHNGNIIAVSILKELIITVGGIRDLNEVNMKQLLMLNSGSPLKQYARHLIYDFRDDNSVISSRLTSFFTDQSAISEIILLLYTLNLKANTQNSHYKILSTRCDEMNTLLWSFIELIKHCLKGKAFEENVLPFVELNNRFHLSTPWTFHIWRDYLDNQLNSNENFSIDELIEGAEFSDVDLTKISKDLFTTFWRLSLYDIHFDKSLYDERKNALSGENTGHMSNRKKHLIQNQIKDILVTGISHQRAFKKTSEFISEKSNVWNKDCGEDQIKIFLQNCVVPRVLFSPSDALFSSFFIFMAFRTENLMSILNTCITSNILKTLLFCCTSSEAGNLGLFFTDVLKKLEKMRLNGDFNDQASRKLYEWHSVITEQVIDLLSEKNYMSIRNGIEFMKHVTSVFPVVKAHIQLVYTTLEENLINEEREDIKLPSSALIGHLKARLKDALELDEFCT
Nature of the test: co-purification of co-expressed subunits (Ni2+-affinity, mono Q, Superose 6 size exclusion); THO* subunits co-expressed in High-Five cells; Tho2 and Tex1 with N-terminal His tags, Hpr1, Mft1 and Thp2 untagged; 4 °C; SDS-PAGE with Coomassie stain of the purified complex.

Results are given in words; binding and its absence hold for the method and conditions named. In cells and extracts the contact can be indirect. A result given as binding can be weak or reduced; the word gives no strength.

For “Saccharomyces bayanus Tex1 (residues 1-380), subunit of THO* (S. bayanus) (domain or fragment)”, the binding entry is recorded as “binds”.

For the origin of these results see paper PMC5218534, “Structural and biochemical analyses of the DEAD-box ATPase Sub2 in association with THO or Yra1” (eLife, 2017).
